# Primary screen of a compound library

Amino acid sequences for entries named in this document (tags omitted). Residues count along the entry.
UniProt Q8IDJ8, 1-583: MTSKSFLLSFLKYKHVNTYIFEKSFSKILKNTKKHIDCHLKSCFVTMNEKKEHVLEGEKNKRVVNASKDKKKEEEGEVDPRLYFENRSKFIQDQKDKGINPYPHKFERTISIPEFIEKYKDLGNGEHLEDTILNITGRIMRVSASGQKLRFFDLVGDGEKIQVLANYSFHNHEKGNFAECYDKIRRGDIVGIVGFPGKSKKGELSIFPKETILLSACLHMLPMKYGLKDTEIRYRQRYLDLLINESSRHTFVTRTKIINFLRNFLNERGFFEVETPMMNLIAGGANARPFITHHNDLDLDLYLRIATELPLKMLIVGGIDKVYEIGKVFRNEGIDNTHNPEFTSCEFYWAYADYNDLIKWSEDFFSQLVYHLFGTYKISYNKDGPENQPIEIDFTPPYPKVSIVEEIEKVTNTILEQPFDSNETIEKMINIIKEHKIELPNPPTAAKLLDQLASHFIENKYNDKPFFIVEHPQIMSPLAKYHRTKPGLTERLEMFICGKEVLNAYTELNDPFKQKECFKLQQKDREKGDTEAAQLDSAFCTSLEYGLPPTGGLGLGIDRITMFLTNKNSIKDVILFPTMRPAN
UniProt P9WFT3, whole entry: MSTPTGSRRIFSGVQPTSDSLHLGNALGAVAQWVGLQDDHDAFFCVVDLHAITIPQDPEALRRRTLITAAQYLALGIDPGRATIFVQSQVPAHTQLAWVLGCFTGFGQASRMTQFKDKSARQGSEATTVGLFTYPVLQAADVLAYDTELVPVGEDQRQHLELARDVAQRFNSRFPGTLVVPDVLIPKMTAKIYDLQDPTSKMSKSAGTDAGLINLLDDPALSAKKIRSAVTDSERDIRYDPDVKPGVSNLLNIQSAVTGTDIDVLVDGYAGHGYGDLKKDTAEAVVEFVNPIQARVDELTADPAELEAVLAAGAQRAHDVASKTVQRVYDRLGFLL
UniProt P9WPC5, whole entry: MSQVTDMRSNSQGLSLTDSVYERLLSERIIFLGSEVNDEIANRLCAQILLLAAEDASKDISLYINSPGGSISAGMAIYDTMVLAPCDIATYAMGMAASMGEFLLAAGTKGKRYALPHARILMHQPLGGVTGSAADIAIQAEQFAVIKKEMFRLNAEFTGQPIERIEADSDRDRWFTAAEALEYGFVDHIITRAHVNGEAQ
UniProt P9WPC3, whole entry partner: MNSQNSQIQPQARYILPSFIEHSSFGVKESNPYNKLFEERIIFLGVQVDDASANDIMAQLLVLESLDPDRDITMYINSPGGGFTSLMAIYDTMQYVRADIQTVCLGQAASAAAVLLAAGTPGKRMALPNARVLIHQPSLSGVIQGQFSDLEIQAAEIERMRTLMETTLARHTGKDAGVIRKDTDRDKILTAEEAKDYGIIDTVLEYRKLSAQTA
UniProt Q4DA54, 1-478: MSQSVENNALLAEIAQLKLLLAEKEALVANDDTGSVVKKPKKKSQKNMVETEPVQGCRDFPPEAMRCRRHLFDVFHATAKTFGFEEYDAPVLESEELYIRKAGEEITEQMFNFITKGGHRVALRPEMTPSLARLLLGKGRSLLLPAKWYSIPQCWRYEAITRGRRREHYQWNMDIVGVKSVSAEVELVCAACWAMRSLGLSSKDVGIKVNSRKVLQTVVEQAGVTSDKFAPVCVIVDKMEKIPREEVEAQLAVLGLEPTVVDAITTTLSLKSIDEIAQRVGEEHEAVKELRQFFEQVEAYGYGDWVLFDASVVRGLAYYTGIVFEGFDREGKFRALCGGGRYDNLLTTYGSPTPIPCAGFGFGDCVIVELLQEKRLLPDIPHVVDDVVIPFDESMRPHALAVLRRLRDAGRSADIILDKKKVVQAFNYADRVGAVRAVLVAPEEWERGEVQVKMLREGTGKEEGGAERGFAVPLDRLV

PfKRS1: 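Lysine-tRNA ligase, Plasmodium falciparum 3D7 (UniProt Q8IDJ8). Enzyme assay of the cytosolic lysyl-tRNA synthetase in 384-well plates, read by luminescence. Tested at 30 µM. Direction is inferred from only a few compounds that gave an IC50; most scored high, so higher reads as stronger inhibition. Size under these conditions: about 69,000 compounds, about 49 of them at 50% or above in at least one test.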
MtTrpRS: 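Tryptophan-tRNA ligase, Mycobacterium tuberculosis (UniProt P9WFT3). Enzyme assay of tryptophanyl-tRNA synthetase; the read-out is not stated. Tested at 10 µM. Higher most likely means stronger inhibition; the record gives no direction and few retests gave an IC50. Size under these conditions: about 65,000 compounds, about 64 of them at 50% or above in at least one test.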
ClpP1P2: 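Protease assay of ClpP1P2, read by the AMC dye that it sets free. Target: ClpP1P2, Mycobacterium tuberculosis (UniProt P9WPC5 and UniProt P9WPC3). Concentration: 50 µM. Higher reads as stronger inhibition, judged from the few compounds that gave an IC50. Most other retested compounds had strongly negative values. About 69,000 compounds were tested under these conditions; 0.015% (about 10) showed 50% or more at least once.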
TcHisRS: 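Enzyme assay of histidyl-tRNA synthetase; the read-out is not stated. Target: Histidine-tRNA ligase, Trypanosoma cruzi CL Brener (UniProt Q4DA54). Tested at 30 µM. The record gives no direction; compounds that gave an IC50 in retests scored well above the rest, so higher reads as stronger inhibition. Size under these conditions: about 69,000 compounds, about 31 of them at 50% or above in at least one test.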

The filed quantity is “Percent Effect” (%).
The record does not define 0% and 100%; most values in the screen are far below 50% and negative numbers occur (in some assays of this library far below -100).
This is an unselected part of the compounds tested.
A dash means the value is not listed here; it may have been measured.

Compound,PfKRS1,MtTrpRS,ClpP1P2,TcHisRS
N#Cc1cccnc1N1CCCN(C(=O)CCc2nccs2)CC1,1.097%,-1.947%,-36.98%,2.882%
Cn1c(C2CC2)nc2c1CCN(CC(=O)Nc1ccncc1)C2,1.111%,-1.947%,-13.68%,5.764%
Cc1c(CN2CCOCC2)c(O)n(CCO)c(=O)c1C#N,-0.03837%,-,19.09%,-6.936%
CCc1c(C)nn(CCN2CC3(CCOC3)CCC2=O)c1C (stereo unspecified),-2.365%,1.56%,-4.405%,15.48%
Cc1c(Cl)cccc1NC(=O)CN(Cc1cccnc1)C(C)C,0.4208%,-4.438%,-8.14%,0.5952%
O=C(Cc1noc2ccccc12)N1CCC(Nc2cccnn2)CC1,1.362%,-6.497%,-32.1%,0.2907%
Cc1ccsc1-c1nnc(C2CCN(Cc3ccc(F)cc3)CC2)o1,0.4593%,1.087%,-4.952%,5.946%
O=C(c1cscn1)N1CCC2(CC1)CN(c1ccccn1)CCO2,1.349%,-1.146%,0.1618%,0.8403%
FC(F)(F)COCCN1CCOC(Cn2cccn2)C1 (stereo unspecified),0.5045%,-5.879%,26.49%,5.07%
c1cncc(-c2nccc(CN3CCCC3)n2)c1,-0.5512%,1.087%,12.57%,2.703%
O=c1[nH]c2nc(NCC3CCCO3)ncc2c(=O)n1-c1cccc(F)c1 (stereo unspecified),5.552%,1.972%,-11.8%,-0.4878%
Cc1ccc(Oc2ncccc2CNC(=O)C2COC(=O)N2)c(F)c1F (stereo unspecified),2.518%,-0.9181%,-8.498%,7.463%
Cc1cc(NC(=O)NCc2ccc(C)s2)no1,4.362%,-1.791%,-1.434%,1.478%
COc1ccccc1CN1CCc2c(nc(-c3ccccn3)[nH]c2=O)C1,2.529%,-,-1.36%,-1.064%
O=C(CCn1ccc2ccccc21)N1CCN(Cc2cccnc2)CC1,1.599%,-4.04%,-3.204%,8.442%
CC(NC(=O)NCCOc1ccc(F)c(F)c1)c1nncn1C (stereo unspecified),7.589%,1.486%,4.431%,-2.642%
CCN(CC)CC1CN(Cc2c(C)noc2C)Cc2nccn2C1 (stereo unspecified),6.836%,1.297%,-6.95%,2.488%
CN(C)c1ncccc1CNS(=O)(=O)c1ccccc1F,-3.317%,-2.274%,10.17%,1.141%
Cc1nn(C)cc1CN(C)C(=O)c1ccccn1,2.386%,2.007%,-6.599%,4.386%
O=S(=O)(Nc1cnc(N2CCOCC2)nc1)c1cccc(F)c1,6.752%,-2.445%,-14.07%,4.39%
Cc1ccc2c(n1)N(CC1CC1)CCN(Cc1ccco1)C2,7.211%,-3.171%,-1.199%,8.602%
CC(C)N1CCc2c(c(COc3cccnc3)nn2CC2CC2)C1,3.029%,-3.03%,-12.22%,5.376%
CC(C)c1nnc2n1CCN(C(=O)CN1Cc3ccccc3C1=O)C2,3.723%,-2.516%,1.629%,3.422%
CC(C)CC(NC(=O)c1ccn(C)c(=O)c1)c1ccccc1 (stereo unspecified),-1.272%,-1.248%,7.884%,0.4425%
CNc1cc(N2CCCC2CNCc2c[nH]nc2C(C)(C)C)ncn1 (stereo unspecified),3.48%,-1.876%,4.847%,5.882%
O=C(Nc1ccc(Cl)cn1)c1cncc(C2CCNCC2)n1,-0.3923%,-0.06793%,6.699%,2.308%
Cc1cc(N2CCC(Cc3cccnc3)CC2)ncn1,1.714%,14.06%,0.2433%,1.538%
O=S(=O)(c1cccc(F)c1)N1C[C@@H]2CC[C@H](C1)N(Cc1ccccc1)C2,1.007%,-1.509%,-4.995%,15.18%
CCCN1CCc2nc(N3CCOCC3)nc(NC(C)C)c2C1,3.302%,-1.744%,-7.62%,4.082%
CC(NC(=O)NCc1c(F)cccc1Cl)(C(=O)O)c1ccco1 (stereo unspecified),0.0926%,-2.416%,-1.494%,3.468%
CS(=O)(=O)N1CCc2[nH]cnc2C12CCN(C(=O)c1ccc[nH]1)CC2,4.801%,-2.828%,-3.232%,-3.061%
CCN(CC)CCCNCc1cc2cccc(C)c2[nH]c1=O,0.9012%,-7.236%,-9.738%,6.977%
Cc1nc(CN2CCCCC2Cn2cccn2)nc2ccccc12 (stereo unspecified),1.752%,-3.268%,-11.79%,0.6061%
Brc1ccc(CNCc2nnc3n2CCCCC3)s1,5.662%,1.528%,2.13%,3.896%
O=C(Nc1nccs1)c1csc(NC2CCCC2)n1,4.264%,2.184%,-3.817%,8.808%

The first 4 entries again:

{"compound": "N#Cc1cccnc1N1CCCN(C(=O)CCc2nccs2)CC1", "PfKRS1": 1.097, "MtTrpRS": -1.947, "ClpP1P2": -36.98, "TcHisRS": 2.882}
{"compound": "Cn1c(C2CC2)nc2c1CCN(CC(=O)Nc1ccncc1)C2", "PfKRS1": 1.111, "MtTrpRS": -1.947, "ClpP1P2": -13.68, "TcHisRS": 5.764}
{"compound": "Cc1c(CN2CCOCC2)c(O)n(CCO)c(=O)c1C#N", "PfKRS1": -0.03837, "ClpP1P2": 19.09, "TcHisRS": -6.936}
{"compound": "CCc1c(C)nn(CCN2CC3(CCOC3)CCC2=O)c1C", "stereo": "stereo unspecified", "PfKRS1": -2.365, "MtTrpRS": 1.56, "ClpP1P2": -4.405, "TcHisRS": 15.48}

From ChEMBL document CHEMBL3988442, “University of Dundee, Small-Polar-MMV Screening Library” (2021).